Laboratory results: article PMC8373905
Results are given in words; binding and its absence hold for the method and conditions named. Binding seen in cells or lysates may run through a third protein. A result given as binding can be weak or reduced; the word gives no strength.

Protein sequences, listed by entry. Tags and fused reporters are not part of them. Lines headed by an entry give the natural chain unless they say otherwise; changes in a name come on top.
UniProt P28074: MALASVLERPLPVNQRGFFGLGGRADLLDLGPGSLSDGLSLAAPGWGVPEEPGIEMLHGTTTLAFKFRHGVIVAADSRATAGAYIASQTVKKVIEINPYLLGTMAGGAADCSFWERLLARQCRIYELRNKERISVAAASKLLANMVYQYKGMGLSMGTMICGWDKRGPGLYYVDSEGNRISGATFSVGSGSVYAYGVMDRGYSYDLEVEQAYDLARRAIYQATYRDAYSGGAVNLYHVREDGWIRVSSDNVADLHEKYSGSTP
UniProt P11387: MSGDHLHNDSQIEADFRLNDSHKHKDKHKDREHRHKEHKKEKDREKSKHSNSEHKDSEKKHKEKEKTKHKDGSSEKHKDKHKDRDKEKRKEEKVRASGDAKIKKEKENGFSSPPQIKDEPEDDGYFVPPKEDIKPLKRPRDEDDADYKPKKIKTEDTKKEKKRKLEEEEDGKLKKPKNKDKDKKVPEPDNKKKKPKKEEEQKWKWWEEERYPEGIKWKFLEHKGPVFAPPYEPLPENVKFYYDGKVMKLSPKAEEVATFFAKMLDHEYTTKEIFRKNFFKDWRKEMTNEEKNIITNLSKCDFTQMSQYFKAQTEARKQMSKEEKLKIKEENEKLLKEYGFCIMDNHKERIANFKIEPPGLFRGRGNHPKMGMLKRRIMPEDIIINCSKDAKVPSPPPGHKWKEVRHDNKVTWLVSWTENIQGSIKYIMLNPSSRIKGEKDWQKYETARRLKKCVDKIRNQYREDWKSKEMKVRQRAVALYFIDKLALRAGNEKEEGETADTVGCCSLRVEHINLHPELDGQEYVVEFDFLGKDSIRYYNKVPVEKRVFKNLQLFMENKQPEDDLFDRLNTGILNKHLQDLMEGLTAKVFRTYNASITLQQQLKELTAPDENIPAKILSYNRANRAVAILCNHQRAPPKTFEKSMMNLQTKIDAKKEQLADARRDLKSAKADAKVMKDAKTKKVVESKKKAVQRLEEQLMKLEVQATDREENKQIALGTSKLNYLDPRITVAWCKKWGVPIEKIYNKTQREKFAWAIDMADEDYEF

Target: PSMB5-FLAG (UniProt P28074)
Assay: co-IP; anti-FLAG M2 IP from transfected HEK293 lysate treated with benzonase, washed with RIPA buffer; cells untreated or treated with CPT (20 µM, 30 min)

binding: binds
Substance: TOP1 (topoisomerase I), endogenous (from UniProt P11387 1-765) (enzyme)
